Here are results for 1 molecule from patent US20240368299A1 (JIANGSU KANION PHARMACEUTICAL, published 2024).

Experiment [1] has as its target T1, recombinant human CD73 protein with C-terminal 6xHis tag (human) (UniProt P21589).
T1 sequence: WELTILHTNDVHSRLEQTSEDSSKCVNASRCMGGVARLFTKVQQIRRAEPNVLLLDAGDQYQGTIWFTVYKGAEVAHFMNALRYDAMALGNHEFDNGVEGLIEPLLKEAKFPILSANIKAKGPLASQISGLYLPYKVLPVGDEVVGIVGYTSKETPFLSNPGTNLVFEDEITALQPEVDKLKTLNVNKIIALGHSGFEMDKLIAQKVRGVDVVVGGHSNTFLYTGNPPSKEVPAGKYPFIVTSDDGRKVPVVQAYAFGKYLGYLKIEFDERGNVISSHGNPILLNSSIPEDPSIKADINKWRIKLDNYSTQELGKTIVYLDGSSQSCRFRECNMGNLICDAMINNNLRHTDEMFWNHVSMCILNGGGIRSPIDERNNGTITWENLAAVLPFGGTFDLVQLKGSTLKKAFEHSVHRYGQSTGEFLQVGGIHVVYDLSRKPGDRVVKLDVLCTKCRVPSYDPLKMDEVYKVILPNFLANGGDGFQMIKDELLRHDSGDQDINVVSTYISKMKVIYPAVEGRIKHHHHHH
Description: SPR, Biacore T200.

In experiment [2] the target is T1, recombinant human CD73 protein with C-terminal 6xHis tag (human). Description: affinity test (summary in embodiment 1).

No constants are given. Whether binding was seen depends on the method and setting. Some results given as binding are weak or reduced against the parent protein; the word gives no strength. Where a sequence is shown, tags or fusion partners need not be part of it.

B1: anti-human CD73 monoclonal antibody 7-C10-Ba-C2 (antibody, V domains shown)
VH: EVQLQQSGPELVKPGASMKISCKASGYSFTGYTMNWVKQSHGKNLEWIGFITPYNGDTIYNQKFKGKATVTVDKSSSTAYMDLLSLTSEDSAVYYCAREGYDGGYFDYWGQGTTLTVSS
VL: DIQMTQSPASLSASVGETVTITCRASENIYSYLAWYQQKQGKSPQLLVYNTQTLAEGVPSRFSGSGSGTQFSLKINSLQPEDFGSYYCQHHYGTPMYPFGGGTKLEIK
notes: Mouse (BABL/c) hybridoma antibody purified from ascitic fluid; also called antibody of the present invention
B1: the binding entry in experiment [1] and in experiment [2] was “binds” in each case.
